Molecules are shown by their SMILES. The list shows a part of the results. The main result of the screen is listed elsewhere. These columns were measured beside it and carry no call. Compounds called inactive in the main read-out are mostly missing here. The note in brackets gives the kind of curve behind each potency; many fits are weak.

This assay in a line: qHTS Assay to Find Inhibitors of Chronic Active B-Cell Receptor Signaling. Conditions: ABC-DLBCL IkBa-CBG/CBR reporter, luminescence ratio (green luciferase fused to IkBa over red control in TMD8 lymphoma cells), 4 h. The essentials:
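Doxycycline induced both beetle luciferases in TMD8 lymphoma cells; IKK-driven degradation limits the IkappaBalpha-fused green signal, while red luminescence normalises for cell number and nonspecific effects. Compounds tested up to 46 uM, 4 hrs.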

[1] abbreviates: measured here: CBR red luminescence, cell number.
Setting [2] is: measured here: IkBa-CBG green luminescence.

Regarding `CCn1c(O)c(N=Nc2ccc(Cl)c(C(=O)O)c2)c2ccccc21`, the half-maximal activity concentration (AC50) (in general, the midpoint of the concentration-response curve, whichever way the signal moves) under setting [1] was 10 µM [falling, partial curve, poor fit].

With `CCOC(=O)c1ccc(NC(=O)CS(=O)(=O)c2cn(CC)c3ccccc23)cc1`, under setting [1], the half-maximal activity concentration (AC50) was 11.2 µM [falling, partial curve, poor fit].

As for `O=C(CNc1ccccc1)Nc1cccc2ccccc12`, the AC50 under setting [1] is 0.562 µM [falling, full curve].

As for `CCc1ccc(-c2cn3nc(C)c(C)nc3n2)cc1`, the concentration at half-maximal activity (AC50) under setting [1] was 10 µM [falling, partial curve].

Take `COc1cccc(/C=N/NC(=O)c2ccoc2C)c1`: the AC50 under setting [1] is 8.91 µM [falling, partial curve].

As for `O=C(O)C1CCCC[C@H]1C(=O)Nc1ncc([N+](=O)[O-])s1` (stereo not given in full), under setting [1], the AC50 is 18.4 µM [rising, single point].

As for `CC(C)(Oc1ccc(Br)cc1Cl)C(=O)Nc1ccon1`, the half-maximal activity concentration (AC50) under setting [1] is 31.6 µM [rising, single point].

In the case of `O=C(CSc1nnnn1Cc1ccccc1)Nc1ccc2c(c1)OCO2`, the AC50 under setting [1] was 29.1 µM [rising, single point].

In the case of `O=C(Nc1ccc(F)c(Cl)c1)N1CCCC1`, under setting [1], the concentration at half-maximal activity (AC50) is 35.5 µM [falling, single point].

With `Cc1ccc(C(=O)O)cc1NC(=S)NC(=O)C(c1ccccc1)c1ccccc1`, the AC50 is, setting by setting: under setting [1], 2.51 µM [rising, full curve]; under setting [2], 14.1 µM [falling, partial curve, poor fit].

Turning to `Cc1n[nH]c(C)c1NC(=O)c1cc([N+](=O)[O-])ccc1Cl`, the half-maximal activity concentration (AC50) under setting [1] was 17.8 µM [rising, single point].

With `Cc1ccc(C(=O)N2CCN=C2SCc2ccc([N+](=O)[O-])cc2)cc1`, the AC50 under setting [1] is 25.9 µM [falling, partial curve, poor fit].

With `CCOC(=O)CN(C(=O)CNC(=O)c1cccs1)C(C(=O)NC1CCCC1)c1cccnc1` (stereo not given), the concentration at half-maximal activity (AC50) under setting [1] is 23.1 µM [falling, single point].

Consider `O=c1[nH]c(C2CCN(S(=O)(=O)c3ccc4c(c3)OCCO4)CC2)nc2c1nnn2Cc1ccc(F)cc1`, for which, under setting [1], the half-maximal activity concentration (AC50) was 1.78 µM [falling, full curve].

In the case of `COc1cc(-c2cc(C(=O)Nc3ccccc3N3CCOCC3)c3ccccc3n2)cc(OC)c1OC`, under setting [1], the AC50 was 2.82 µM [rising, single point].

Turning to `Cn1c(CCN2CCCCC2)nc2cc(NC(=O)Nc3ccccc3)ccc21`, under setting [1], the AC50 is 0.251 µM [falling, full curve, poor fit].

For the molecule `COc1ccc(C2CC(=O)c3c([nH]c(C(=O)OC(C)C)c3C)C2)cc1OC` (stereo not given), the concentration at half-maximal activity (AC50) under setting [1] is 23.1 µM [rising, partial curve, poor fit].

On to `COc1ccc(-c2[nH]ncc2CNCc2cc(C)n(C)n2)c(F)c1`, for which the half-maximal activity concentration (AC50) under setting [1] is 5.62 µM [rising, single point].

Take `C/C(=N\Nc1nc2ccccc2[nH]1)c1cccs1`: the AC50 under setting [1] is 9.2 µM [falling, partial curve].

Take `CC(=O)Nc1cccc(-n2c(=O)n(Cc3ccccc3)c(=O)c3[nH]cnc32)c1`: the AC50 was 22.4 µM [rising, partial curve] under setting [1] and 11.2 µM [falling, partial curve, poor fit] under setting [2].

Regarding `Cc1cc(C)cc(NC(=S)N=Nc2c(O)n(C)c3ccc(S(=O)(=O)N4CCOCC4)cc23)c1`, the AC50 under setting [1] is 18.4 µM [rising, single point].

With `CC(C)(C)OC(=O)N1CCC(c2cc(-c3cccs3)n[nH]2)CC1`, the half-maximal activity concentration (AC50) under setting [1] is 35.5 µM [falling, single point].

For `COc1ccc(S(=O)(=O)N2CCOCC2)cc1NC(=O)COc1ncnc2ccccc12`, under setting [1], the AC50 is 29.1 µM [rising, single point].

As to `O=C(CN(c1cccc(C(F)(F)F)c1)S(=O)(=O)c1ccccc1)Nc1cccc(Cl)c1`, the half-maximal activity concentration (AC50) is, setting by setting: under setting [1], 7.08 µM [falling, full curve, poor fit]; under setting [2], 6.31 µM [rising, partial curve, poor fit].

In the case of `O=C(O)C1CC=CCC1C(=O)Nc1ccc2c(c1)CCC2` (stereo not given), the AC50 under setting [1] was 7.08 µM [rising, partial curve].

With `CCN(CC(=O)Nc1c(F)cccc1F)C(=O)/C=C/c1ccc(Br)s1`, the half-maximal activity concentration (AC50) under setting [1] was 1.3 µM [falling, full curve].

As for `CCOc1ccc2nc(NC(=O)c3ccccn3)sc2c1`, the AC50 under setting [2] was 11.2 µM [falling, partial curve].

Take `CC(NC(=O)COc1ncnc2cc([N+](=O)[O-])ccc12)c1ccccc1` (stereo not given): the concentration at half-maximal activity (AC50) under setting [1] was 16.4 µM [falling, single point].

For `O=C(O)c1ccc(N=Nc2c(O)[nH]c3ccccc23)cc1`, the AC50 under setting [1] was 0.316 µM [falling, full curve, poor fit].

`O=C(c1cc(S(=O)(=O)N2CCOCC2)ccc1F)N1CCCc2ccccc21`: the concentration at half-maximal activity (AC50) under setting [1] was 23.1 µM [falling, partial curve, poor fit].

With `Clc1ccccc1-c1nnc(CNC2CC2)o1`, the AC50 under setting [1] was 2.82 µM [falling, partial curve, poor fit].

Regarding `COC(=O)c1ccc(NC(=O)CN(C)S(=O)(=O)c2ccc(OC)c(C)c2)cc1`, the half-maximal activity concentration (AC50) under setting [1] is 6.51 µM [falling, partial curve, poor fit].

`COc1ccc(N2CCN(CC(O)c3c[nH]c4ccc(OC)cc34)CC2C)cc1` (stereo not given): the concentration at half-maximal activity (AC50) runs as follows: under setting [1], 35.5 µM [falling, single point]; under setting [2], 20 µM [rising, partial curve, poor fit].

For `OCC(O)/C=N/Nc1nc2ccccc2s1` (stereo not given), the concentration at half-maximal activity (AC50) under setting [1] is 35.5 µM [falling, single point].

For the molecule `Cc1ccc2nc(SCC(=O)Nc3ccc4c(c3)OCCO4)[nH]c2c1`, under setting [1], the AC50 was 0.103 µM [falling, full curve, poor fit].

For the molecule `CCOc1cc(/C=C2\CCn3c2nc2cc(Cl)ccc2c3=O)ccc1O`, the AC50 under setting [1] is 3.16 µM [falling, full curve].

`CCCC(=O)Nc1ccc(C2C(=O)c3ccccc3C2=O)cc1`: the AC50 under setting [1] is 35.5 µM [rising, single point].

For the molecule `CCNC(=O)c1ccc(NS(=O)(=O)c2ccc3[nH]c(=O)[nH]c3c2)cc1`, under setting [1], the AC50 is 11.2 µM [falling, partial curve, poor fit].

As to `Cc1cc(C)c(O)c(-c2cc(C(=O)Nc3c(C)n(C)n(-c4ccccc4)c3=O)[nH]n2)c1`, the AC50 under setting [1] was 8.91 µM [falling, partial curve, poor fit].

In the case of `CC(C)N=c1scc(-c2ccco2)n1/N=C/c1ccc(O)c(O)c1`, the AC50 under setting [1] is 35.5 µM [falling, single point].

Take `COc1ccc(-c2nnc(SCC(=O)c3ccc(NC(C)=O)cc3)o2)cc1OC`: the AC50 under setting [1] is 3.98 µM [rising, partial curve, poor fit].

On to `Cc1ccc(C2c3c(-c4ccccc4O)n[nH]c3C(=O)N2Cc2ccncc2)cc1` (stereo not given), for which, under setting [1], the AC50 is 20.6 µM [falling, single point].

Take `O=C(CCl)Nc1ccc(N=Nc2ccccc2)cc1`: the concentration at half-maximal activity (AC50) under setting [1] was 20.6 µM [falling, partial curve].

Consider `CCN(CC)S(=O)(=O)c1ccc(OC)c(NC(=S)Nc2cccc(C)c2)c1`, for which, under setting [1], the concentration at half-maximal activity (AC50) was 14.6 µM [rising, partial curve, poor fit].

In the case of `CCn1c(O)c2ccc(C(=O)N=NC(=O)c3ccccc3)cc2c1O`, the AC50 under setting [1] is 12.6 µM [falling, partial curve, poor fit].

As to `COc1cc(-c2cc(=O)c3ccccc3o2)ccc1O`, under setting [1], the AC50 was 10 µM [falling, partial curve, poor fit].

As for `Cc1cc(C)cc(N(C(=O)c2csnn2)C(C(=O)NC(C)(C)C)c2cccnc2)c1` (stereo not given), the AC50 under setting [1] was 25.1 µM [rising, single point].

With `CC[C@@]12C(=O)N(c3cccc(F)c3)C(=O)N1[C@H](c1ccc(Cl)cc1)[C@@H]1C(=O)N(C3CCCCC3)C(=O)[C@@H]12`, the AC50 under setting [1] is 23.1 µM [falling, single point].

Turning to `CC(C)c1ccc(/C=C/C(=O)NC2CCCCC2)cc1`, under setting [1], the AC50 is 29.1 µM [rising, single point].

`Cc1ccc2cc(/C=N/Nc3nc4ccccc4[nH]3)c(Cl)nc2c1`: the concentration at half-maximal activity (AC50) under setting [1] was 9.2 µM [falling, partial curve, poor fit].

Regarding `CCOc1ccc(C(=O)NCC(=O)NCCCn2nc(C)cc2C)cc1OCC`, the half-maximal activity concentration (AC50) under setting [1] is 0.1 µM [rising, full curve, poor fit].

In the case of `CC(=O)N1CCc2cc(S(=O)(=O)NCCC(=O)NCCc3ccc(C)cc3)ccc21`, the AC50 under setting [1] is 29.1 µM [rising, single point].

Consider `Cc1ccc(SCC(=O)N(C)CC(=O)Nc2cccc(F)c2)cc1`, for which the half-maximal activity concentration (AC50) under setting [1] is 3.66 µM [rising, partial curve, poor fit].

As to `O=C(COC(=O)c1cc(Cl)cc(Cl)c1)NCCN1C(=O)CSC1=O`, the concentration at half-maximal activity (AC50) under setting [1] is 4.11 µM [rising, full curve, poor fit].

For `O=C(OCC(=O)N1CCOCC1)c1ccccc1OCc1ccc(Cl)cc1`, the half-maximal activity concentration (AC50) under setting [2] was 8.2 µM [falling, partial curve, poor fit].

Consider `CC(C)OC(=O)c1ccc(COC(=O)c2cnccn2)cc1`, for which the AC50 under setting [1] was 20 µM [rising, partial curve, poor fit].

In the case of `CCOC(=O)NC(=O)COC(=O)CCCSc1nc2ccccc2s1`, the concentration at half-maximal activity (AC50) under setting [2] was 0.251 µM [rising, full curve, poor fit].

Take `CCCCCCc1c(O)c2ccccc2[nH]c1=O`: the half-maximal activity concentration (AC50) under setting [1] was 2.31 µM [rising, partial curve, poor fit].

Regarding `Cc1ccccc1NC(=O)C1CC(=O)n2ncnc2N1` (stereo not given), the AC50 under setting [1] was 8.91 µM [falling, partial curve, poor fit].

`CC[C@]12c3[nH]c4ccc(Cl)cc4c3CCN1C(=O)[C@@H](CC(=O)NCCc1ccccn1)C[C@@H]2C(=O)N1CCN(C(=O)c2ccco2)CC1`: the AC50 under setting [1] is 0.00517 µM [falling, full curve, poor fit].

For `Oc1ccc2c(ccc3[nH]cnc32)c1`, the AC50 under setting [1] was 3.55 µM [falling, single point].

The values above are taken from PubChem BioAssay AID493014 (National Center for Advancing Translational Sciences (NCATS), 2011).
